# According to doi:10.1101/2021.05.10.443488:
# No constants are given. Whether binding was seen depends on the method and setting. Binding seen in cells or lysates may run through a third protein. Binding calls can cover weak binding; strength is not graded here. Sequences can lack the tags named with a protein.
# B1: HelRSv (rifamycin associated helicase-like protein of Streptomyces venezuelae) (protein, UniProt F2RC64 1-722)
# chain: MRVLSSVDQLDGTSAFDLPDRLSAKTDPALIAADERHFSAIAKSLAETITELSDRLDATRKAPGGVGREAMDRDAEIHRLTGRLRTLRRFGLDLCLGRIVTADDAEPVYVGRLGLTDSTGRRLLVDWRSPAAEPFFAATHADPMGLTSRRRYRWTGGRVSDYWDEVFTADGLEEHAALDDQSAFIASLGSSRSPQMRDVLATIQADQDAIIRAGSRGTLVVDGGPGTGKTVVALHRSAHLLYADPRLGHRRGGVLFVGPHQPYLAYVADVLPSLGEEGVRTCTVRDLVAEGAGAAVERDAEVARLKSSADMVRAIEAAVRFYEEPPTQRMTVSTDWADVRLTADDWAEAFDAPEAGTPHNEAREQIWEELGSILLGKLGDEVPEEEFRRALRQDEELAGALHGAWPLLEAADLVGDLWSVPAYLRKCAPWLDREDVAKLQRADAQAWTVSDLPLLDAARQRLGDPEAARRRRRQQATVAAERARMADVIADVLAADDDGEGAVTMLRGQDLKDTLVDEAALTGVEPDLLAGPFAHIVVDEAQELSDAEWQMLLLRCPSRSFTIVGDRAQARHGFTESWEERLARVGLDRITVASLSINYRTPEEVMAEAEPAIRAALPDANVPTSVRSSGVPVLRGPVEELDTIVDEWLAANADGTACVIGAPRFRPGPRVRSLTPSLSKGLEFDLVVLVDPEDFGGGIEGAVDRYVAMTRATKQLVILTSS
# B2: Rox (rifamycin monooxygenase of S. venezuelae) (enzyme, UniProt F2R776 1-476)
# chain: MFDVIVVGGGPTGLMLAGELRLHGVRVLVLEKETEPTRQSRAQGLHVRSIEVMAQRGLLERFLERGHTVAVGGFFAGLATSWPERLDTAHSYVLAVPQVITEQLLAEHATALGAEIRRGRALVGLRQDEDGVTVDLADGEQLRARYVVGCDGGRSTVRKLLGVAFPGEPSRVETLLGEMEMTASQEELTSVMTEVRKTQQRFGAMPLGDGVFRVVVPAEGVAEDRTASPTLDEFKQQLRAHAGTDFGVHSPRWLSRFGDATRQAERYRVDRVFLAGDAAHIHPPTGGQGLNLGIQDAFNLGWKLAAEVDGWAPEGLLDTYHAERHPVATEVLDNTRAQIQLMSTEPGPQAVRRLMAELVEFENVNRYLIEKITAISVRYDVGEGHELLGRRMRDLALKHGRLYERMHEGRGLLLDQTGRLSVAGWEDRVDHVVEVSEELDVPAVLLRPDGHVVWAGEDQQELLTRMPAWFGAATAG
# Molecular target: RNA polymerase (RNAP) of Streptomyces venezuelae (Streptomyces venezuelae (endogenous))
# Assay: co-purification with native RNAP
row,Binder,binding
1,B1,binds
2,B2,no binding
